Measured values from paper PMC8481833, “Kinetic Characterization and Inhibitor Screening of Pyruvate Kinase I From Babesia microti” (Frontiers in Microbiology, 2021).

Experiments:
[1] = test system: Vero cells; assay: Cytotoxicity assay, Cell Counting Kit-8, Vero cells; conditions: selectivity index, Vero cells versus B. microti
[2] = test system: HFF cells; assay: Cytotoxicity assay, Cell Counting Kit-8, HFF cells; conditions: selectivity index, HFF cells versus B. microti

Compound | SI Vero [1] | SI HFF [2]
CC1=C(CSC(=S)N2CCCCC2)C(=O)c2ccccc2C1=O [PKM2 inhibitor] | 34.10 | 16.16
Tannic acid | 74.61 | 51.35
O=c1cc(-c2ccc(O)cc2)oc2cc(O)cc(O)c12 [Apigenin] | 27.88 | 15.70
